Experimental data from PubChem BioAssay AID540256 (National Center for Advancing Translational Sciences (NCATS), 2011).
Values joined by “and” are separate entries in the source; they are usually repeats but may differ in a detail not shown here. Equal entries are not always repeated. The whole screen tested about 300,000 compounds, of which about 3,700 (1.2%) were called active. Inconclusive results, whose numbers are uncertain, are shown with a selection of clear calls. Calls follow the shape of the full dose curve; tested in HEK293 cells. Potencies of inconclusive entries are doubtful fits and often do not repeat.

Assay: qHTS for Inhibitors of binding or entry into cells for Lassa Virus; also: nearly all actives have a fitted effect of over 50% in size
Details: Lassa virus pseudotype entry inhibition, cell reporter; activity change, negative = inhibition: at 37.9 µM (top of the series) unless noted
% is scaled to controls: 0 for no effect and ±100 for the full control effect; potency is read from the fitted curve at half-maximal effect.

SMILES	Potency	activity change, negative = inhibition
O=c1ccc2cc3c4c(c2o1)CCCN4CCC3	inconclusive: 22.4 µM [inhibitor, single point]	–
O=S(=O)(Cc1noc(-c2ccccc2Cl)n1)c1ccccn1	inconclusive: 35.5 µM [inhibitor, single point]	–
COc1ccc(N2CC(C(=O)N/N=C/c3c[nH]c4ccccc34)CC2=O)cc1 (stereo unspecified)	–	inactive: -10.1%
Cc1ccc(NC(=O)/C=C\C(=O)N(c2ccc(C(C)C)cc2)C(C(=O)NCc2ccco2)c2ccc(F)cc2)cc1 (stereo unspecified)	–	inactive: -28.8% [at 46.1 µM]
CCOc1ccccc1NC(=O)CSc1nccn1-c1cccc(C)c1	inconclusive: 5.62 µM [inhibitor, single point]	–
O=C(NCCNC(=O)c1cccs1)c1ccco1	–	inactive: -1.54%
COc1ccc2c(Sc3ccc(C)cc3)c(C(=O)NC(C)C)[nH]c2c1	–	inactive: -26.8% [at 46.1 µM]
O=C(O)CSCc1cn2cc(Cl)ccc2n1	inconclusive: 0.891 µM [activator, partial curve, poor fit]	–
O=C(COc1ccccc1Cl)Nc1ccc2c(c1)C(=O)NC2=O	inconclusive: 35.5 µM [inhibitor, single point]	–
CN(C)S(=O)(=O)Oc1cccc(C(=O)Nc2ccc(Cl)c(Cl)c2)c1	inconclusive: 29.1 µM [inhibitor, single point]	–
O=C(c1cnn2c1NC(c1ccco1)CC2C(F)(F)F)N1CCN(c2cccc(Cl)c2)CC1 (stereo unspecified)	active: 12.6 µM	–
O=C(c1cc2cc(Cl)ccc2o1)N1CCCCCC1	inconclusive: 0.316 µM [activator, partial curve, poor fit]	–
CC(C)C(=O)NCc1cc(-c2ccccc2)no1	–	inactive: 9.48% [at 46.1 µM]
Cc1ccc(Nc2cc(C)nc(-n3nc(C)cc3C)n2)cc1	inconclusive: 12.6 µM [inhibitor, single point]	–
Cc1cc(OCCOCCNC(C)C)cc(C)c1Cl	inconclusive: 35.5 µM [inhibitor, single point]	–
O=C(COC(=O)[C@H](Cc1c[nH]c2ccccc12)NC(=O)c1ccc(Cl)cc1)Nc1ccc2c(c1)OCO2	–	inactive: 21.8%
COC(=O)N/N=C/c1c(C)c(C(=O)c2ccc(F)cc2)n2ccccc12	inconclusive: 15.8 µM [inhibitor, single point]	–
COc1ccc(OC)c(/C=C/C(=O)N2C(=O)c3cccc(N)c3C2=O)c1	inconclusive: 8.91 µM [inhibitor, partial curve, poor fit]	–
Cc1cc2nc(N3CCN(C(=O)c4ccco4)CC3)sc2cc1C	inconclusive: 12.6 µM [inhibitor, single point]	–
COc1cccc2c1C(=O)c1c(O)c3c(c(O)c1C2=O)C[C@@](O)(C(=O)CO)C[C@@H]3O[C@H]1C[C@H](N)[C@H](O)[C@H](C)O1	active: 0.366 µM	–
O=C(CSc1ccc([N+](=O)[O-])cc1)c1ccccc1	–	inactive: 6.33%
Cn1cc(C(=O)N/N=C/C2=C(N3CCOCC3)C(=C\c3ccccc3)/CC2)ccc1=O	inconclusive: 12.6 µM [activator, partial curve, poor fit]	–

SMILES	Potency	activity change, negative = inhibition
Cc1cccc(NC(=O)CSc2nc3ccccc3nc2N2CCC(C)CC2)c1	inconclusive: 1.12 µM [inhibitor, full curve, poor fit]	–
CCOc1ccc(N(Cc2ccccc2)C(=O)c2nc(SCC)ncc2Cl)cc1	–	inactive: -1.9% [at 46.1 µM]
CCOc1cc(C(=O)Nc2ncn[nH]2)cc(OCC)c1OCC	inconclusive: 20 µM [inhibitor, partial curve, poor fit]	–
COc1ccc(S(=O)(=O)N(CC(=O)Nc2ccc(F)c(Cl)c2)c2ccc(C)cc2)cc1OC	inconclusive: 35.5 µM [inhibitor, single point]	–
O=C(COc1ccc(Cl)cc1Cl)NCCC1=CCCCC1	inconclusive: 29.1 µM [inhibitor, single point]	–
Cc1cc(C)cc(NC(=S)N2CCC(NC(=O)c3ccc(F)cc3)CC2)c1	inconclusive: 5.62 µM [inhibitor, single point]	–
O=C(CCN1C(=O)/C(=C/c2ccc3c(c2)OCO3)SC1=S)Nc1cccc(C(=O)O)c1	inconclusive: 0.891 µM [inhibitor, full curve, poor fit]	–
CCCCCCn1c2c(c(=N)c3c1CCC3)CCC2	active: 3.66 µM	–
Nc1nnc(SCC(=O)OCC(=O)Nc2ccc(Br)cc2F)s1	inconclusive: 1.26 µM [inhibitor, single point]	–
COc1ccc(/C=N/NC(=O)Cc2csc(Nc3cccc(C(F)(F)F)c3)n2)cc1C	inconclusive: 22.4 µM [inhibitor, single point]	–
COc1ccc2nc(NC(=O)c3nc(S(=O)(=O)Cc4ccccc4F)ncc3Cl)sc2c1	inconclusive: 10 µM [inhibitor, partial curve, poor fit]	–
OC(COc1cccc2ccccc12)CN1CCN(c2ccccn2)CC1 (stereo unspecified)	inconclusive: 5.62 µM [activator, single point]	–
CSc1nn2cc(CCN3CCOCC3)c(-c3ccc(F)cc3)nc2c1C#N	inconclusive: 1.12 µM [inhibitor, partial curve, poor fit]	–
COc1cc(SC)ccc1C(=O)NNC(=O)c1cc(C)oc1C	inconclusive: 12.6 µM [inhibitor, single point]	–
COc1ccc(NC(=O)c2ccc(=O)[nH]c2)cc1S(=O)(=O)N1CCCCC1	–	inactive: -13.7%
c1coc(-c2ccnc(-n3cccc3)n2)c1	–	inactive: 13.9% [at 46.1 µM]
O=S1CCN(Cc2ccc(-c3ccc4ncnc(Nc5ccc(OCc6ccccc6)c(F)c5)c4c3)o2)CC1	inconclusive: 35.3 µM [inhibitor, single point]	–
CCOC(=O)N/N=C\c1cccc(OC)c1OC/C=C/c1ccccc1	inconclusive: 7.94 µM [inhibitor, partial curve, poor fit]	–
O=C(CCNc1ccc(Cl)cc1)c1cccs1	–	inactive: 1.93%
CCOC(=O)N1CCC(NC(=O)CCc2ccccc2)CC1	inconclusive: 10 µM [inhibitor, single point]	–
CC1(C)CC2CC(C)(CN2S(=O)(=O)c2ccc(C(=O)Nc3cc(S(=O)(=O)N4CCOCC4)ccc3Cl)cc2)C1 (stereo unspecified)	inactive and inconclusive: 5.62 µM [inhibitor, partial curve, poor fit]	–
COCCn1nnnc1C(C(C)C)N(Cc1ccccc1)Cc1cc2cc(OC)ccc2[nH]c1=O (stereo unspecified)	inconclusive: 22.4 µM [inhibitor, partial curve, poor fit]	–

SMILES	Potency	activity change, negative = inhibition
O=C(CCN1CC1)OCCOC(=O)CCN1CC1	inconclusive: 35.5 µM [inhibitor, single point]	–
O=C(Nc1ccc2c(c1)OCCO2)NC1CCCCC1	inconclusive: 35.5 µM [inhibitor, single point]	–
Nc1nnc(CCCCc2cccs2)o1	–	inactive: -12.4%
O=C(C1CCN(S(=O)(=O)c2cc(Cl)ccc2Cl)CC1)N1CCCC1	inconclusive: 6.31 µM [inhibitor, single point]	–
Cc1cccc(N2CCN(S(=O)(=O)c3c(C)[nH]c(C)c3C(=O)N3CCCCC3)CC2)c1C	inconclusive: 28.2 µM [inhibitor, single point]	–
Cc1ccc(-c2noc(CNC(=O)COc3cc(C)c(Br)c(C)c3)n2)cc1	–	inactive: 5.35% [at 46.1 µM]
COc1cc(OC)cc(C(=O)NCC(=O)N2CC=C(c3ccccc3)CC2)c1	–	inactive: -7.01%
Cc1c(CCOC(=O)c2ccc(N3CCOCC3)c([N+](=O)[O-])c2)sc[n+]1CC#N	active: 13 µM	–
Cn1nnnc1SCC(=O)Nc1ccc(C(=O)N2CCN(Cc3ccccc3F)CC2)cc1	–	inactive: 15.7%
Cc1ccc(C(=O)NCC(=O)OCC(=O)N(CC(C)C)c2c(N)n(Cc3ccccc3)c(=O)[nH]c2=O)cc1	inconclusive: 31.6 µM [activator, partial curve, poor fit]	–
CCOc1ccc2nc(NC(=O)Cc3cccs3)sc2c1	inconclusive: 0.708 µM [activator, full curve, poor fit]	–
OC(CN1CCOCC1)CN1CCOCC1	–	inactive: 2.66%
CCC(=O)Nc1ccc(C(=O)N/N=C/c2ccccc2[N+](=O)[O-])cc1	inconclusive: 2.59 µM [activator, full curve, poor fit]	–
CCCN(CCC)C(=O)CSc1nc2c(sc(=S)n2-c2ccc(OCC)cc2)c(=O)[nH]1	inconclusive: 3.55 µM [inhibitor, partial curve, poor fit]	–
Cc1ccc(C2CC3CCC(C2)N3Cc2ccccc2F)cc1 (stereo unspecified)	inconclusive: 15.8 µM [inhibitor, partial curve, poor fit]	–
CNC(=S)N1N=C(c2ccc(OC)cc2)CC1c1ccccc1Cl (stereo unspecified)	inconclusive: 35.5 µM [inhibitor, single point]	–
CCOc1ccccc1C(=O)Oc1c(S(=O)(=O)c2ccc(C)cc2)c(C)nn1-c1ccccc1	inconclusive: 35.5 µM [inhibitor, single point]	–
CC(C)C[C@H](NC(=O)C1CC(=O)N(c2ccc(F)cc2)C1)C(=O)N1CCCCC1 (stereo partly specified)	–	inactive: -4.74% [at 46.1 µM]
Cc1cccc(C(=O)N2CCC(c3nc(-c4ccc(S(=O)(=O)N5CCOCC5)cc4)no3)CC2)c1	inconclusive: 11.6 µM [inhibitor, partial curve, poor fit]	–
Cc1ccc(SCC(=O)Nc2ccc(S(=O)(=O)Nc3nccs3)cc2)cc1	inconclusive: 22.4 µM [inhibitor, partial curve, poor fit]	–
Cc1ccccc1CN1CCc2nc(N3CCN(c4ncccn4)CC3)ncc2C1	inconclusive: 8.91 µM [inhibitor, partial curve, poor fit]	–
N#CSCC(=O)c1cccc2ccccc12	inconclusive: 16.4 µM [inhibitor, partial curve, poor fit]	–

Quoted at random: three records from the list
SMILES	Potency	activity change, negative = inhibition
O=S(=O)(Cc1noc(-c2ccccc2Cl)n1)c1ccccn1	inconclusive: 35.5 µM [inhibitor, single point]	–
COc1ccc2c(Sc3ccc(C)cc3)c(C(=O)NC(C)C)[nH]c2c1	–	inactive: -26.8% [at 46.1 µM]
CCOC(=O)N/N=C\c1cccc(OC)c1OC/C=C/c1ccccc1	inconclusive: 7.94 µM [inhibitor, partial curve, poor fit]	–
